# System: M. tuberculosis H37Rv
# Experiment: Minimum inhibitory concentration
# Assay type: cell-based
# Conditions: Mycobacterium tuberculosis, read-out: MIC value
compound,measurement,value
CO[C@H]1/C=C/O[C@@]2(C)Oc3c(C)c(O)c4c(O)c(c(/C=N/N5CCN(C)CC5)c(O)c4c3C2=O)NC(=O)/C(C)=C\C=C\[C@H](C)[C@H](O)[C@@H](C)[C@@H](O)[C@@H](C)[C@H](OC(C)=O)[C@@H]1C [rifampicin],MIC,0.125 µg/mL
